Source: article PMC7819943, “Rice protein-binding microarrays: a tool to detect cis-acting elements near promoter regions in rice”
This is one part of the list.

The chains behind the UniProt entries cited, without tags or fusion partners.
UniProt Q0JBA9, entry or part of it: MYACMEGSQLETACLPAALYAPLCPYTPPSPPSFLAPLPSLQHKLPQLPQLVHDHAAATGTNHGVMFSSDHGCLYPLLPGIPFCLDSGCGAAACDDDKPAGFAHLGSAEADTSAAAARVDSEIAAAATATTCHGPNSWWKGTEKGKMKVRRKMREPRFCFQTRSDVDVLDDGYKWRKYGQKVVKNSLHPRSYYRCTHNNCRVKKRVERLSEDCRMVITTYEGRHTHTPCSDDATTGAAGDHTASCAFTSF

What follows are sequences tested against OsWRKY34 (Oryza sativa, UniProt Q0JBA9 1-250) (assay: protein-binding microarray (RPBM); PBS, 2% BSA, 51.3 ng/ul salmon testes DNA, 50 uM zinc acetate, 200 nM TF, 25 C, 1 h; high values mean tight binding). Settings: protein: recombinant; tags: N-terminal polyhistidine and DsRed monomer fusion (pET32a); label: CyDye5-dUTP incorporated in the synthesized complementary strand; 3' TTTTT single-stranded linker to array surface; dsDNA, one strand shown.
Outline: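 Using Ni–NTA, transcription factors fused N-terminally to polyhistidine and DsRed were purified after expression in E. coli BL21-CodonPlus. These were incubated at 200 nM with a blocked, double-stranded custom Agilent array for 1 h at 25 °C in a buffer containing 50 µM zinc acetate, and the array was washed. The binding signal is per-feature fluorescence intensity (arbitrary units) on an Axon 4000B scanner.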

Sequence | binding signal
GACCCACTGACGGGTGGGTCCCATATATTTTATTTTTTTACGGAGTCACCTAGTGCAG | 9100 fluorescence intensity (a.u.)
AACCCGACCGTCCGATCCCTCCACGACGGCTCTCAGTCGCCGGAGTCACCTAGTGCAG | 8860 fluorescence intensity (a.u.)
AATGTCCACGTCGTAAGTATCAACTAGGTCTATTACAAATCGGAGTCACCTAGTGCAG | 9400 fluorescence intensity (a.u.)
CCTCCGGATCTACCGACAATTTTTTTTGCCTCGCCACGTACGGAGTCACCTAGTGCAG | 9710 fluorescence intensity (a.u.)
ATTTAGGTGGCGGTAGCAATCCCCGGGCTTCTTTTCTCCCCGGAGTCACCTAGTGCAG | 8330 fluorescence intensity (a.u.)
ATCTAGCCATCATTAATCTCTATGGCTTGATTTCCTATTCCGGAGTCACCTAGTGCAG | 10100 fluorescence intensity (a.u.)
ATCCATCCGTTCCGTTTAGTTTGCTCCAAGCGCAAGCGCACGGAGTCACCTAGTGCAG | 10500 fluorescence intensity (a.u.)
GAGAGTTTATGCCCGGTCCTTCGAGAACATACACAGCAACCGGAGTCACCTAGTGCAG | 8690 fluorescence intensity (a.u.)
CATCCTACTTTGTTGCTGCTTGGAACGCTCCATGCATGTCCGGAGTCACCTAGTGCAG | 8580 fluorescence intensity (a.u.)
GAAGAACTGATTTTTGGAGGTGGGGTTCAGCTTGCTGGCTCGGAGTCACCTAGTGCAG | 9010 fluorescence intensity (a.u.)
ATGGGACCCACCAACCATTGTCTCTCACTCTCTCCCCTCGCGGAGTCACCTAGTGCAG | 8840 fluorescence intensity (a.u.)
ATTCTGCCTCAAAAAGTACTTTCATACTATTTTAATTTTTCGGAGTCACCTAGTGCAG | 10400 fluorescence intensity (a.u.)
CTGCCCACCGCGACCCCGTTTTGTCCGCCCTCCGTGCTACCGGAGTCACCTAGTGCAG | 11800 fluorescence intensity (a.u.)
CGCCGATGACGACCCGCCATTGTTTTCTCTCTTTCTTTTTCGGAGTCACCTAGTGCAG | 12200 fluorescence intensity (a.u.)
TGGCTCCTTTTAAGTTATTCTTCCCAAACAGACATGATTTCGGAGTCACCTAGTGCAG | 8660 fluorescence intensity (a.u.)
GTCAGGTGGCAGGCATGTTTGTTCCCTCTCGCCCCTCCTTCGGAGTCACCTAGTGCAG | 8240 fluorescence intensity (a.u.)
TATCCATACCTCTCGCCATAACATAATCCGACTTCATTAACGGAGTCACCTAGTGCAG | 10400 fluorescence intensity (a.u.)
ATCCGAGGGGAAGTAGGGTTTGGAGGAGGAGGAGGGGAGACGGAGTCACCTAGTGCAG | 9320 fluorescence intensity (a.u.)
TTGTATACATGTTTCAAGTTTTTTCTGGTATATTTAGGTTCGGAGTCACCTAGTGCAG | 8570 fluorescence intensity (a.u.)
GGGCGTGTGGGCTGTGGCTCTCGTCGTTCTTGGCGCCACCCGGAGTCACCTAGTGCAG | 9210 fluorescence intensity (a.u.)
GGTTTTTTCGGGCTTGTCCACTCATACCAGAGCCAACGTACGGAGTCACCTAGTGCAG | 9720 fluorescence intensity (a.u.)
GCGTTTCTCTCTATATATTTTTTTTATTTTTTAGCGTAAACGGAGTCACCTAGTGCAG | 10400 fluorescence intensity (a.u.)
ACTATTCACATTCAACGTTTGACTGTTCTTTTATTTGAAACGGAGTCACCTAGTGCAG | 11200 fluorescence intensity (a.u.)

Two consecutive entries from above, for reference:
Sequence | binding signal
AACCCGACCGTCCGATCCCTCCACGACGGCTCTCAGTCGCCGGAGTCACCTAGTGCAG | 8860 fluorescence intensity (a.u.)
AATGTCCACGTCGTAAGTATCAACTAGGTCTATTACAAATCGGAGTCACCTAGTGCAG | 9400 fluorescence intensity (a.u.)
